Measurements: PubChem BioAssay AID652054 (National Center for Advancing Translational Sciences (NCATS), 2013)
The whole screen tested about 360,000 compounds, of which about 9,100 (2.5%) were called active. Inconclusive means that the source gave no clear call. Such entries were picked first, then a sample of the others. No stated cut-off is given here; in the data, active means max response below about -50%; inconclusive means no clear call, values can overlap the other calls; inactive means above that.

Sequences of proteins named here, by UniProt entry; tags and fusion partners are left off.
UniProt P35462, whole entry, looked up: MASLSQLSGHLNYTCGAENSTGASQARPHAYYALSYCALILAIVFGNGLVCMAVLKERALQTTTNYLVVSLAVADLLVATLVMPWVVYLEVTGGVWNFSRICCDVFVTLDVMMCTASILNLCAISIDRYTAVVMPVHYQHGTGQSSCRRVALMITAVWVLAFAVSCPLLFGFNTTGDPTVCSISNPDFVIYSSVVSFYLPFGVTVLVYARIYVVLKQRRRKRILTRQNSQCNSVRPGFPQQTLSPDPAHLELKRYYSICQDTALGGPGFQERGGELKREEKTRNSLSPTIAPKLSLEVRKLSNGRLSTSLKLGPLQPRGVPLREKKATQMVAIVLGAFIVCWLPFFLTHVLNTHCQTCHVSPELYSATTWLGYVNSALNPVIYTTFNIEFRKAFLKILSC

Each compound was assayed against D(3) dopamine receptor (Homo sapiens) (UniProt P35462) (assay: qHTS of D3 Dopamine Receptor Antagonist: qHTS). Conditions: D3R cells, DiscoveRx beta-arrestin luminescence, antagonist mode; stronger effect = lower value.
How it was run: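 Cells plated overnight at 1500 cells/well, then exposed to library compounds with dopamine controls for 90 minutes at 37 degrees C. DiscoveRx reagent added for 30–60 minutes at room temperature; luminescence read, quantitative HTS format.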
On the % scale 0 is the no-effect control and ±100 the full control effect.

Row | SMILES | max response, negative = inhibition
1 | OCCN1CCN(Cc2cccc(Oc3ccc(Cl)cc3)c2)CC1 | inconclusive: -39.5%
2 | COc1cc2c(cc1OC)C(c1cc(Br)ccc1F)N(C(=O)CCl)CC2 (stereo not drawn) | active: -86.7%
3 | COC(=O)c1sccc1NC(=O)Nc1cccc(OC)c1 | inactive: -0.447%
4 | CC1(C(=O)NS(=O)(=O)c2ccc3c(c2)CCO3)CCN1C(=O)CCc1ccc(Cl)cc1Cl (stereo not drawn) | inconclusive: -34.2%
5 | CN(C)CCn1c2c(c(SCC(=O)Nc3cccc(C(F)(F)F)c3)nc1=O)CCCC2 | inactive: 8.99%
6 | CCN(CC)CCNCc1ccc(-c2ccc(Cl)cc2)o1 | inconclusive: -40.4%
7 | CN1CCCN(C(=O)c2ccc(Cl)cc2)CC1 | inconclusive: -30.7%
8 | CC1=C(C(=O)OCc2ccccc2)C(c2ccc(N3CCOCC3)cc2)NC(=O)N1 (stereo not drawn) | inconclusive: -30.8%
9 | COc1ccc(NC(=O)N(C)C[C@H]2Oc3ccc(NC(=O)Cc4ccccc4)cc3CC(=O)N([C@H](C)CO)C[C@H]2C)cc1 | inactive: -27.9%
10 | CC(C)=CCC[C@](C)(O)C1CC[C@]2(C)C1C(O)CC1[C@@]3(C)CCC(O)C(C)(C)C3C(O[C@@H]3OC(CO)C(O)C(O)C3O[C@@H]3OC(C)C(O)C(O)C3O)C[C@]12C (stereo partly drawn) | inconclusive: -47.6%
11 | c1csc(C(c2nnnn2C2CCCC2)N2CCOCC2)c1 (stereo not drawn) | inconclusive: -38.8%
12 | CCOC(=O)c1c(/N=C/c2cc(C)ccc2O)sc2c1CCN(C)C2 | active: -54%
13 | COc1ccc(CCNC(=O)C(=O)NCC2CCCN2S(=O)(=O)c2ccc(OC)cc2)cc1 (stereo not drawn) | inactive: 28.4%
14 | CSc1nsc(/C=C/Nc2ccc(O)cc2C)c1C#N | active: -54.9%
15 | Cc1ccc(-c2nnc(Nc3ccc(CC(N)=O)cc3)c3ccccc23)cc1 | inconclusive: -32.8%
16 | COC(=O)[C@@]12C[C@@H](CC(=O)NCc3ccccc3)C(=O)N(Cc3cccc4ccccc34)C1=CCC(C)(C)C2 | inconclusive: -41.9%
17 | C=CS(=O)(=O)c1c2cc(OC)ccc2nc2ccc(OC)cc12 | active: -82.6%
18 | O=C1C=C(NCc2ccccc2)c2ccccc2C1=O | active: -70.7%
19 | O=C(O)CCCC(=O)OCc1c(-c2ccccc2)ncc2ccccc12 | inconclusive: -33.6%
20 | O=C1NC(c2ccccc2)C(C(=O)c2cccs2)=C1O (stereo not drawn) | active: -58.4%
21 | CCOC(=O)N/N=C/C=C/c1ccccc1 | inconclusive: -32.6%
22 | COC(=O)C1=CN(c2ccc(F)cc2)C=C(C(=O)OC)C1c1ccc([N+](=O)[O-])cc1 | inconclusive: -31.6%

Row | SMILES | max response, negative = inhibition
23 | CS(=O)(=O)N(CC(=O)N1CCc2ccccc2C1)c1ccccc1Br | inconclusive: -44.9%
24 | C/C(=N\Nc1ccc([N+](=O)[O-])cc1)c1ccc(N2CCOCC2)cc1 | inactive: -8.81%
25 | N#Cc1c(N2CCN(C(=O)c3ccccc3)CC2)nc(-c2ccccc2)c2c1CCCC2 | inconclusive: -37%
27 | CN(C)c1ccc(P(=O)(CC(=O)N/N=C/c2ccc(C#N)cc2)OCCCl)cc1 (stereo not drawn) | active: -62.7%
28 | Cc1ccc(C(CNC(=O)c2ccc(Br)o2)N2CCN(C)CC2)cc1 (stereo not drawn) | inconclusive: -33.8%
29 | Cc1cc(O)c(/C=N/Nc2ccc(F)cc2)c(=O)o1 | inconclusive: -43.5%
30 | COc1ccc2cc3cc(C(=O)NCCN4CCN(Cc5ccccc5)CC4)oc3nc2c1 | active: -60.9%
31 | O=C(N/N=C/c1cc(Br)cc([N+](=O)[O-])c1O)c1ccc(NC(=O)c2ccc(F)cc2)cc1 | inconclusive: -44.9%
32 | CC(C)(C)NC(=O)C[C@H]1C[C@H](C(=O)N2CCCCC2)[C@@]2(C)c3[nH]c4ccc(Cl)cc4c3CCN2C1=O | inconclusive: -45.2%
33 | Brc1ccccc1OCCN1CCCC1 | active: -61.6%
34 | COc1ccc(-n2c(CNc3ccc(C)cc3)nnc2SCC(=O)Nc2nc(-c3ccccc3)cs2)cc1 | inactive: -14.7%
35 | COc1ccc(-c2[nH]nc3oc(=O)cc(C)c23)cc1 | inconclusive: -35.6%
36 | COc1ccc(CCN(C)CCC(=O)Nc2ccc(C)cc2)cc1OC | inconclusive: -37.1%
37 | O=C(NC(c1ccc(Cl)cc1)c1cccnc1)C1CCN(CCOc2ccc(Cl)cc2Cl)CC1 (stereo not drawn) | inconclusive: -35.6%
38 | O=C(Nc1ccc(Br)cc1)/C(=C/c1cccc([N+](=O)[O-])c1)NC(=O)C1CCCCC1 | active: -63.5%
39 | ONC(=Nc1cccc(C(F)(F)F)c1)c1cccnc1 | active: -63.1%
40 | CC1(C)Cc2cccc(OCC(=O)NCc3ccc(F)cc3)c2O1 | inconclusive: -33.1%
41 | Cc1cccc(C(C)(C)C)c1OCCN1CCCC1 | active: -92.9%
42 | O=c1cc(O)c2c(=O)n(-c3ccccc3)c3c(c2o1)CCCCCC3 | inconclusive: -30.4%
43 | COc1ccc(-c2cc(=Nc3ccc(C)cc3)c3ccccc3o2)cc1 | inactive: -16.5%
44 | Cc1ccccc1NS(=O)(=O)c1ccc(NS(=O)(=O)c2cccs2)cc1 | inconclusive: -39.8%

Row | SMILES | max response, negative = inhibition
45 | CCOC(=O)CSc1nc2ccc(N)cc2s1 | inactive: 0%
46 | CCOc1cc(/C=N/NC(=O)c2cc(-c3cccnc3)nc3ccccc23)ccc1O | inconclusive: -40.5%
47 | CC(=O)[C@]1(O)Cc2c(O)c3c(c(O)c2[C@@H](O[C@H]2C[C@H](N)[C@H](O)[C@H](C)O2)C1)C(=O)c1ccccc1C3=O | inconclusive: -36.9%
48 | Cc1cccc(NC(=O)CCN2CCN(C/C=C/c3ccccc3)CC2)c1 | active: -63.9%
49 | C=CCn1c(SCC(=O)c2[nH]c(C)c(C(C)=O)c2C)nnc1-c1ccncc1 | inconclusive: -40%
50 | CCCCN1C=CC(=C2N=c3cccc([N+](=O)[O-])c3=N2)C=C1 | inconclusive: -32.9%
51 | O=C(COc1ccc(Br)cc1)NCCCNC(=O)c1cccnc1 | inactive: -16.8%
52 | O=C(OCn1ncc(Br)c(Br)c1=O)c1ccc(F)cc1 | active: -82.9%
53 | Oc1[nH]c(=S)sc1/C=C1\C(c2ccccc2)=Nc2ccccc21 | inconclusive: -30.6%
54 | COc1ccc(C(=O)N/C(=C\c2ccco2)C(=O)NCCCn2ccnc2)cc1 | active: -54.6%
55 | Cc1ccc(NC(=O)c2cc(=O)c3ccccc3o2)cc1S(=O)(=O)N1CCOCC1 | inactive: 35%
56 | Cc1ccnc(-n2c(C)cc(C=O)c2C)c1 | inactive: 27.5%
57 | COc1ccccc1NC(=O)NCCN1CCCCC1 | inactive: -10.6%
58 | O=C(NN=c1c(=O)c2ccccc2c1=O)c1ccccc1 | inconclusive: -46.1%
59 | Nc1nonc1-c1nc2ccccc2n1Cc1ccccc1 | inactive: 17.7%
60 | Cc1c(N=C2N=C(NC(=O)NC(C)(C)C)c3ccccc32)c(=O)n(-c2ccccc2)n1C | inactive: 11.4%
61 | Cc1cccc(N2C(=O)CC(Sc3nc(-c4ccccc4)c4cc(Cl)ccc4n3)C2=O)c1 (stereo not drawn) | inconclusive: -35.8%
62 | Cc1ccc(C)c(S(=O)(=O)Nc2ccc(O)cc2)c1 | inactive: -21.3%
63 | O=C(NCCc1ccccc1)c1cccc2c1C(=O)N(C1CCCCC1)C2 | inactive: 10.8%
64 | Cc1cc2oc(C(=O)NCC(c3ccco3)N3CCCC3)c(C)c2cc1C (stereo not drawn) | inactive: 10.2%
65 | COc1ccc(Cc2nnc(NCCO)[nH]c2=O)cc1 | inactive: 5.79%
66 | CCNC(=S)N(Cc1ccc(OC)cc1)C1CC(=O)N(c2ccc(OCC)cc2)C1=O (stereo not drawn) | inconclusive: -39.5%

Compounds from the list above that contain a cyano group:
Row | SMILES | max response, negative = inhibition
14 | CSc1nsc(/C=C/Nc2ccc(O)cc2C)c1C#N | active: -54.9%
25 | N#Cc1c(N2CCN(C(=O)c3ccccc3)CC2)nc(-c2ccccc2)c2c1CCCC2 | inconclusive: -37%
27 | CN(C)c1ccc(P(=O)(CC(=O)N/N=C/c2ccc(C#N)cc2)OCCCl)cc1 (stereo not drawn) | active: -62.7%

(list continues)

Row | SMILES | max response, negative = inhibition
67 | O=S(=O)(Nc1ccccc1)c1cccc2nonc12 | inconclusive: -38.9%
68 | O=C(N/N=C/c1ccc([N+](=O)[O-])s1)c1ccccc1 | inconclusive: -40.9%
69 | O=C(C#Cc1ccccc1)c1ccccc1 | active: -64.9%
70 | CC1=C(/C=N/Nc2ccc([N+](=O)[O-])cc2[N+](=O)[O-])C(C)(C)CCC1 | inactive: 22.5%
71 | COc1c(-c2ccc(O)cc2)oc2cc(O)cc(O)c2c1=O | inconclusive: -43.8%
72 | CCOC(=O)c1c(-c2cc(OC)c(OC)c(OC)c2)csc1N | inactive: 0%
73 | Cc1cc(C(=O)N2CCc3ccccc32)n(-c2ccccc2)n1 | inconclusive: -46.7%
74 | O=C(CN1C(=O)c2ccccc2S1(=O)=O)NCc1ccccc1 | inconclusive: -33.8%
75 | Cc1ccc(/C=N/N2CCCCC2)o1 | inconclusive: -43.3%
76 | CCOc1ccc(Cn2c(=O)oc3ccc(C)cc32)cc1OC | inactive: 34.3%
77 | Cc1cc(NC(=O)c2ccco2)sc1C | inconclusive: -30.5%
78 | CCN(CC(=O)Nc1cccc(C(C)=O)c1)S(=O)(=O)c1ccc(C)cc1 | inactive: 9.73%
79 | O=C(CC1OC(=O)c2ccccc21)Nc1ccccc1N1CCOCC1 (stereo not drawn) | inconclusive: -37.8%
80 | O=C(NCc1ccc(F)cc1)C(=O)NCC1CCCN1S(=O)(=O)c1ccccc1 (stereo not drawn) | inconclusive: -45.4%
81 | O=C(O)C(Oc1ccc2cc(-c3ccc(Cl)cc3)c(=O)oc2c1)c1ccccc1 (stereo not drawn) | inactive: -7.88%
82 | O=C(COC(=O)c1ccc(Br)o1)Nc1nc2ccccc2s1 | inconclusive: -39%
83 | Cc1ccc(NC(=S)C2=C(O)c3sccc3N(C)S2(=O)=O)cc1 | active: -87.5%
84 | C=CCn1c(=N)n(CC(=O)OC)c2ccccc21 | inconclusive: -47.1%
85 | COc1ccc(-n2c(CCc3ccccc3)nnc2SCC(=O)c2ccccc2)cc1 | inconclusive: -44.8%
86 | CCN(CC(=O)N1CCOCC1)S(=O)(=O)c1ccc(F)cc1 | inactive: -3.32%
87 | CS(=O)c1ccccc1COC(=O)Nc1ccc(Cl)cc1 (stereo not drawn) | inconclusive: -48.7%
88 | Nc1c(C(=O)NC23CC4CC(CC(C4)C2)C3)sc2nc3c(c(C(F)(F)F)c12)CCC3 | inconclusive: -40.2%
